Assay results published in PubChem BioAssay AID662 (National Center for Advancing Translational Sciences (NCATS), 2007).
The other results are listed elsewhere or left out. These are further read-outs of the screen, such as a control signal, another cell line or another target. No call is given for them. The list favours compounds with an active or inconclusive main result. Words in brackets tell the shape of the fitted curve; partial curves, single points and poor fits give uncertain potencies.

Test: Cell signaling CRE-BLA (Fsk stim)
Settings: CHO CRE-bla reporter (cAMP response element driving beta-lactamase), forskolin EC10, beta-lactamase ratio; measured here: 460 nm blue channel
In short: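 Titrated compounds plus EC10 NKH 477 on CHO CRE-bla cells, 3 h, 37 °C. CCF4, 2 h RT. Ratio 460/530 nm → AC50.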

Structure (SMILES)	AC50
CN(C)CCCn1cc(C2=C(c3c[nH]c4ccccc34)C(=O)NC2=O)c2ccccc21	15.8 µM [falling, partial curve]
Cc1cc(C)n2nc(C(=O)OCCOc3ccc(F)cc3)nc2n1	25.1 µM [rising, single point]
O=C(CSc1ccc2nnc(-c3ccccn3)n2n1)N1CCN(c2ccccc2)CC1	10 µM [rising, partial curve]
Cc1ccccc1NS(=O)(=O)c1ccc2[nH]cc(C(=O)N(C)Cc3ccco3)c(=O)c2c1	7.94 µM [falling, partial curve]
COCCCNC(=O)c1cn(C)c(=O)c2cc(OC)c(OC)cc12	10 µM [rising, partial curve]
Cc1c(OCc2ccc(C(=O)O)o2)ccc2c3c(c(=O)oc12)CCC3	1 µM [falling, partial curve]
COC(=O)C1=CN(CCCN2CCCC2=O)C=C(C(=O)OC)C1c1ccccc1C(F)(F)F	12.6 µM [rising, partial curve]
CCOc1cc(C2C(C(=O)OC)=CN(C3CCCC3)C=C2C(=O)OC)cc(Br)c1O	2.51 µM [rising, full curve]
O=C(CS(=O)(=O)Cc1ccccc1)NCC1CCCO1 (stereo not drawn)	12.6 µM [rising, single point]
COc1ccc(OC)c(NC(=O)c2ccc(NS(=O)(=O)c3c(C)noc3C)cc2)c1	10 µM [rising, single point]
CCCc1c(C(=O)OCC)[nH]c2c1C(=O)CCC2	12.6 µM [rising, single point]
CC(C)CNc1oc(-c2ccc(F)cc2)nc1C#N	5.01 µM [rising, partial curve]
Cc1ccccc1-n1c(=O)cc(N2CCN(Cc3ccccc3)CC2)[nH]c1=O	10 µM [rising, partial curve]
COc1cc(=O)n(C)c2c(OC[C@@H](O)C(C)(C)O)cccc12	15.8 µM [rising, partial curve]
CC(C)c1nc(SCC(=O)NCc2ccccc2)n[nH]1	5.01 µM [falling, single point]
COc1cc2c(cc1OC)C1=C(C#N)COCN1CC2	1 µM [rising, full curve]
O=c1cc(-c2ccc(Cl)c(Cl)c2)[nH][nH]1	0.00398 µM [falling, full curve, poor fit]
CC1(C)CC(=O)C2=C(C1)OC(N)=C(C#N)C2c1cccc(OC(=O)c2ccco2)c1 (stereo not drawn)	7.94 µM [rising, partial curve]
Cc1cccc(CSC2=NCCN2C(=O)c2ccc(Br)o2)c1	10 µM [rising, partial curve]
O=C(CSc1nnc(-c2cnccn2)n1Cc1ccco1)Nc1ccc(Br)cc1	0.00316 µM [falling, full curve, poor fit]
COc1ccc(C(=O)CSc2ncn[nH]2)cc1OC	12.6 µM [rising, single point]
Cc1ccc(CSC2=Nc3ccccc3C3=NC(CCC(=O)NCc4ccco4)C(=O)N23)cc1 (stereo not drawn)	0.01 µM [rising, full curve]

Structure (SMILES)	AC50
CCN(c1cccc(C)c1)S(=O)(=O)c1ccc2c(c1)CCN2C(C)=O	12.6 µM [rising, single point]
CN(C)c1ncc2nc(-c3cc(F)cc(F)c3)c(=O)n(-c3ccccc3)c2n1	0.631 µM [rising, full curve]
Cc1cc(N2CCC(C(=O)Nc3ccc(F)cc3)CC2)nc(-c2ccccc2)n1	0.1 µM [falling, full curve, poor fit]
c1ccc2c(c1)Cc1cc3ccccc3nc1-2	12.6 µM [rising, partial curve]
CCOC(=O)c1cn(-c2ccccc2)nc1-c1ccncc1	10 µM [rising, partial curve]
CC(C)Cn1cc(C(=O)NCc2cccs2)c2c3ccccc3n(C)c2c1=O	0.316 µM [falling, full curve, poor fit]
COc1cc(/C=C(/C#N)c2ccc(F)cc2)ccc1OCc1ccc(C(=O)O)o1	15.8 µM [falling, single point]
CN(C)c1ccc(-c2ccc3ncnc(N4CCNCC4)c3c2)cc1	10 µM [rising, partial curve]
CCC1CCCCN1CC(=O)Nc1cc(C)nn1-c1nc(C)cc(C)n1 (stereo not drawn)	5.01 µM [rising, partial curve]
COc1cc2c(cc1OC)C(=O)Cc1ccc3c(c1CN(C)CC2)OCO3	31.6 µM [falling, single point]
COc1ccccc1C1C(C(=O)NCc2ccccc2)=C(C)Nc2ncnn21 (stereo not drawn)	3.16 µM [falling, partial curve]
CCOC(=O)c1cnc(-n2cc(C)cn2)nc1NCc1ccc2c(c1)OCO2	1.58 µM [rising, full curve, poor fit]
CCCN1CCN(C(=O)Cn2cccc2C(=O)c2ccccc2)CC1	0.0794 µM [falling, full curve, poor fit]
COCCNc1ccnc(-c2cccc(NS(C)(=O)=O)c2)n1	5.01 µM [falling, single point]
COc1cccc(OC(=O)CSc2nnc(-c3ccccc3Br)o2)c1	3.98 µM [rising, single point]
Cc1cccc(CNc2ncnc3ccc(-c4cccc(NS(C)(=O)=O)c4)cc23)c1	2.51 µM [rising, partial curve]
C=CCOC(=O)C(C#N)c1nc2ccccc2nc1N1CCN(Cc2ccc3c(c2)OCO3)CC1 (stereo not drawn)	10 µM [rising, partial curve]
C(=N\c1nccs1)/Nc1nccs1	5.01 µM [falling, single point]
Nc1ccc(C(=O)OCCCc2nc3ccccc3[nH]2)cc1	12.6 µM [rising, single point]
CCCCCCCCCCCCCCCCCC(=O)NC[C@@H](COP(=O)([O-])OCC[N+](C)(C)C)OCC	20 µM [falling, partial curve]
COc1ccc(-c2nnc(SCC(=O)OC3CCCCC3)o2)cc1OC	12.6 µM [rising, single point]

13 compounds from above, ordered by molar mass, smallest number first.
Structure (SMILES)	AC50
C(=N\c1nccs1)/Nc1nccs1	5.01 µM [falling, single point]
Nc1ccc(C(=O)OCCCc2nc3ccccc3[nH]2)cc1	12.6 µM [rising, single point]
CN(C)c1ccc(-c2ccc3ncnc(N4CCNCC4)c3c2)cc1	10 µM [rising, partial curve]
CCC1CCCCN1CC(=O)Nc1cc(C)nn1-c1nc(C)cc(C)n1 (stereo not drawn)	5.01 µM [rising, partial curve]
CCN(c1cccc(C)c1)S(=O)(=O)c1ccc2c(c1)CCN2C(C)=O	12.6 µM [rising, single point]
COc1cc2c(cc1OC)C(=O)Cc1ccc3c(c1CN(C)CC2)OCO3	31.6 µM [falling, single point]
COc1ccccc1C1C(C(=O)NCc2ccccc2)=C(C)Nc2ncnn21 (stereo not drawn)	3.16 µM [falling, partial curve]
CCOC(=O)c1cnc(-n2cc(C)cn2)nc1NCc1ccc2c(c1)OCO2	1.58 µM [rising, full curve, poor fit]
Cc1cc(N2CCC(C(=O)Nc3ccc(F)cc3)CC2)nc(-c2ccccc2)n1	0.1 µM [falling, full curve, poor fit]
COc1cc(/C=C(/C#N)c2ccc(F)cc2)ccc1OCc1ccc(C(=O)O)o1	15.8 µM [falling, single point]
Cc1cccc(CNc2ncnc3ccc(-c4cccc(NS(C)(=O)=O)c4)cc23)c1	2.51 µM [rising, partial curve]
COc1cccc(OC(=O)CSc2nnc(-c3ccccc3Br)o2)c1	3.98 µM [rising, single point]
CCCCCCCCCCCCCCCCCC(=O)NC[C@@H](COP(=O)([O-])OCC[N+](C)(C)C)OCC	20 µM [falling, partial curve]
